{"sequences": {"note": "By UniProt entry, the sequences of proteins in these tests, tags left out.", "UniProt P62258": "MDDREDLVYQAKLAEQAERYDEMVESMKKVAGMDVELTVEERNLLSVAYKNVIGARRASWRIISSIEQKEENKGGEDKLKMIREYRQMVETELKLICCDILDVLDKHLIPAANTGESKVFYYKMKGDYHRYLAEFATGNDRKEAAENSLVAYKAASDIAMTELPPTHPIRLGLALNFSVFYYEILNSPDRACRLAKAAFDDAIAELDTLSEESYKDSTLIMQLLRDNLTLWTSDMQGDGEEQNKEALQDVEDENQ"}, "source": "paper PMC3590290", "molecular_target": "3XFlag-14-3-3ε (UniProt P62258)", "test": "co-IP; 14-3-3ε stable cell lysates immunoprecipitated with anti-Flag antibody on Protein A magnet beads (Millipore), Western blot for Zeb-1", "note": "No constants are given. Whether binding was seen depends on the method and setting. Binding seen in cells or lysates may run through a third protein.", "data": [{"binder": "Zeb-1 (protein, UniProt P37275 1-1124) MADGPRCKRRKQANPRRNNVTNYNTVVETNSDSDDEDKLHIVEEESVTDAADCEGVPEDDLPTDQTVLPGRSSEREGNAKNCWEDDRKEGQEILGPEAQADEAGCTVKDDECESDAENEQNHDPNVEEFLQQQDTAVIFPEAPEEDQRQGTPEASGHDENGTPDAFSQLLTCPYCDRGYKRFTSLKEHIKYRHEKNEDNFSCSLCSYTFAYRTQLERHMTSHKSGRDQRHVTQSGCNRKFKCTECGKAFKYKHHLKEHLRIHSGEKPYECPNCKKRFSHSGSYSSHISSKKCISLIPVNGRPRTGLKTSQCSSPSLSASPGSPTRPQIRQKIENKPLQEQLSVNQIKTEPVDYEFKPIVVASGINCSTPLQNGVFTGGGPLQATSSPQGMVQAVVLPTVGLVSPISINLSDIQNVLKVAVDGNVIRQVLENNQANLASKEQETINASPIQQGGHSVISAISLPLVDQDGTTKIIINYSLEQPSQLQVVPQNLKKENPVATNSCKSEKLPEDLTVKSEKDKSFEGGVNDSTCLLCDDCPGDINALPELKHYDLKQPTQPPPLPAAEAEKPESSVSSATGDGNLSPSQPPLKNLLSLLKAYYALNAQPSAEELSKIADSVNLPLDVVKKWFEKMQAGQISVQSSEPSSPEPGKVNIPAKNNDQPQSANANEPQDSTVNLQSPLKMTNSPVLPVGSTTNGSRSSTPSPSPLNLSSSRNTQGYLYTAEGAQEEPQVEPLDLSLPKQQGELLERSTITSVYQNSVYSVQEEPLNLSCAKKEPQKDSCVTDSEPVVNVIPPSANPINIAIPTVTAQLPTIVAIADQNSVPCLRALAANKQTILIPQVAYTYSTTVSPAVQEPPLKVIQPNGNQDERQDTSSEGVSNVEDQNDSDSTPPKKKMRKTENGMYACDLCDKIFQKSSSLLRHKYEHTGKRPHECGICKKAFKHKHHLIEHMRLHSGEKPYQCDKCGKRFSHSGSYSQHMNHRYSYCKREAEERDSTEQEEAGPEILSNEHVGARASPSQGDSDERESLTREEDEDSEKEEEEEDKEMEELQEEKECEKPQGDEEEEEEEEEVEEEEVEEAENEGEEAKTEGLMKDDRAESQASSLGQKVGESSEQVSEEKTNEA", "values": [{"measurement": "binding", "value": "no binding"}]}]}
